PubChem BioAssay AID743121 – NCATS | 2013
Here is an unselected part of about 26,000 deposited reagents. 167 of all reagents (0.63%) count as active. 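Calls are per gene from RSA p-values that are not deposited; an individual active-marked siRNA can sensitise only weakly.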 Entries without a mark were called inactive. Further read-outs or replicates are left out here.

- Purpose: 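Genes whose silencing strengthens cell killing by camptothecin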 (primary screen)
- System: MDA-MB-231 cells, a human breast cancer line
- Reagents: single siRNA against human genes, 20 nM siRNA (0.8 pmol per well)
- Time to read-out: 120 h (drug added 48 h after transfection, read 72 h later)
- Conditions: camptothecin 20 nM (about EC30) for 72 h; vehicle 0.1% DMSO in parallel plates
- Measurement: 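CellTiter-Glo ATP signal, scaled to control siRNA as percent viability; sensitisation given as log2 of untreated divided by camptothecin-treated viability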
- Reading the numbers: log2 vehicle/camptothecin viability: higher = stronger sensitisation to camptothecin; viability with camptothecin: higher = more viable cells
- Units: viability with camptothecin in % of control
- Rule for the call: 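Each gene scored by redundant siRNA activity (RSA) over its individual siRNA ratios; a gene is called active at p < 0.001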

With ARPP19 [SID164413369], what does the deposit list?
log2 vehicle/camptothecin viability: 0.00702; viability with camptothecin: 104

With ARPP19 [SID164413370], what was measured?
log2 vehicle/camptothecin viability: -0.458; viability with camptothecin: 45.7

For ARPP19 [SID164413371], what does the deposit list?
log2 vehicle/camptothecin viability: -0.414; viability with camptothecin: 101

With ARPP19 [SID164413372], what does the deposit list?
log2 vehicle/camptothecin viability: -0.0298; viability with camptothecin: 34.9

For MAPK6 [SID164382735], how do the results read?
log2 vehicle/camptothecin viability: -0.374; viability with camptothecin: 53.5

For MAPK6 [SID164382737], what was measured?
log2 vehicle/camptothecin viability: 0.244; viability with camptothecin: 81.6

Which result is listed for MAPK6 [SID164382740]?
log2 vehicle/camptothecin viability: -0.182; viability with camptothecin: 56.1

For MAPK6 [SID164382742], what does the deposit list?
log2 vehicle/camptothecin viability: -0.604; viability with camptothecin: 88.1

How did the screen score TRIM49 [SID164492594]?
log2 vehicle/camptothecin viability: -0.51; viability with camptothecin: 117

For TRIM49 [SID164492595], how do the results read?
log2 vehicle/camptothecin viability: -0.0356; viability with camptothecin: 105

What is on record for TRIM49 [SID164706337]?
log2 vehicle/camptothecin viability: -0.238; viability with camptothecin: 57.1

How did the screen score TRIM49 [SID164706344]?
log2 vehicle/camptothecin viability: -0.32; viability with camptothecin: 111

With GHSR [SID164366538], what was measured?
log2 vehicle/camptothecin viability: 0.269; viability with camptothecin: 41.5

What is on record for GHSR [SID164366539]?
log2 vehicle/camptothecin viability: 0.122; viability with camptothecin: 12.3

Which result is listed for GHSR [SID164366540]?
log2 vehicle/camptothecin viability: 0.347; viability with camptothecin: 77

What did the screen give for GHSR [SID164366543]?
log2 vehicle/camptothecin viability: -0.46; viability with camptothecin: 47

How did the screen score PRP4K [SID164400637]?
log2 vehicle/camptothecin viability: -0.897; viability with camptothecin: 121

With PRP4K [SID164400641], what was measured?
log2 vehicle/camptothecin viability: -0.583; viability with camptothecin: 96.6

For PRP4K [SID164400644], how do the results read?
log2 vehicle/camptothecin viability: -0.531; viability with camptothecin: 59

What did the screen give for PRP4K [SID164400645]?
log2 vehicle/camptothecin viability: -0.513; viability with camptothecin: 68

With PTPN21 [SID164415565], what was measured?
log2 vehicle/camptothecin viability: 1.39; viability with camptothecin: 8.12

How did the screen score PTPN21 [SID164415567]?
log2 vehicle/camptothecin viability: -0.15; viability with camptothecin: 23.7

How did the screen score PTPN21 [SID164415568]?
log2 vehicle/camptothecin viability: -0.516; viability with camptothecin: 68.2

For PTPN21 [SID164415569], what does the deposit list?
log2 vehicle/camptothecin viability: -0.286; viability with camptothecin: 96.5

What did the screen give for HSD11B2 [SID164370088]?
log2 vehicle/camptothecin viability: 0.296; viability with camptothecin: 24.8

With HSD11B2 [SID164370090], what does the deposit list?
log2 vehicle/camptothecin viability: 0.257; viability with camptothecin: 44.6

For HSD11B2 [SID164370092], what does the deposit list?
log2 vehicle/camptothecin viability: -0.333; viability with camptothecin: 87

For IL17RB [SID164485097], what was measured?
log2 vehicle/camptothecin viability: 0.384; viability with camptothecin: 58.3

What did the screen give for IL17RB [SID164485098]?
log2 vehicle/camptothecin viability: -0.337; viability with camptothecin: 26.4

What is on record for IL17RB [SID164485101]?
log2 vehicle/camptothecin viability: -0.262; viability with camptothecin: 83.5

For IL17RB [SID164485102], what does the deposit list?
log2 vehicle/camptothecin viability: -0.393; viability with camptothecin: 61.6

What did the screen give for AGTRAP [SID164492546]?
log2 vehicle/camptothecin viability: -0.528; viability with camptothecin: 46.1

What did the screen give for AGTRAP [SID164492547]?
log2 vehicle/camptothecin viability: 0.112; viability with camptothecin: 51

Which result is listed for AGTRAP [SID164492548]?
log2 vehicle/camptothecin viability: -0.346; viability with camptothecin: 106

What did the screen give for AGTRAP [SID164492550]?
log2 vehicle/camptothecin viability: -0.135; viability with camptothecin: 78.5

How did the screen score DKK1 [SID164444644]?
log2 vehicle/camptothecin viability: 0.23; viability with camptothecin: 55.2

With DKK1 [SID164444645], what was measured?
log2 vehicle/camptothecin viability: 0.162; viability with camptothecin: 40.7

With DKK1 [SID164444646], what does the deposit list?
log2 vehicle/camptothecin viability: -0.0513; viability with camptothecin: 86.8

Which result is listed for DKK1 [SID164444650]?
log2 vehicle/camptothecin viability: -0.148; viability with camptothecin: 75.3

With MAP4K2 [SID164384384], what was measured?
log2 vehicle/camptothecin viability: 0.0578; viability with camptothecin: 74.7

For MAP4K2 [SID164384387], what was measured?
log2 vehicle/camptothecin viability: -0.0256; viability with camptothecin: 57.3

For MAP4K2 [SID164384389], what was measured?
log2 vehicle/camptothecin viability: -0.608; viability with camptothecin: 51.3

For MAP4K2 [SID164384390], what was measured?
log2 vehicle/camptothecin viability: -0.185; viability with camptothecin: 59.3

How did the screen score MKRN2 [SID164449112]?
log2 vehicle/camptothecin viability: -0.147; viability with camptothecin: 97.1

For MKRN2 [SID164449114], how do the results read?
log2 vehicle/camptothecin viability: -0.0201; viability with camptothecin: 45.3

With MKRN2 [SID164449116], how do the results read?
log2 vehicle/camptothecin viability: -0.225; viability with camptothecin: 73.8

For MKRN2 [SID164449118], how do the results read?
log2 vehicle/camptothecin viability: 0.0124; viability with camptothecin: 100
